Measurements reported in article PMC7817833.
Results are given in words; binding and its absence hold for the method and conditions named. In cells and extracts the contact can be indirect. Some results given as binding are weak or reduced against the parent protein; the word gives no strength. For part of these data: Tags and fused reporters may be left off the sequences shown. Blank lines part the entries; values can stand above or below the binder they belong to.

Legend:
[1] = biological target: T1, Endonuclease G (ENDOG), overexpressed in L02 cells (human) (UniProt Q14249); assay: co-IP; ENDOG- or 14-3-3γ-overexpressing L02 cells; lysate in Western/IP buffer
T1 sequence: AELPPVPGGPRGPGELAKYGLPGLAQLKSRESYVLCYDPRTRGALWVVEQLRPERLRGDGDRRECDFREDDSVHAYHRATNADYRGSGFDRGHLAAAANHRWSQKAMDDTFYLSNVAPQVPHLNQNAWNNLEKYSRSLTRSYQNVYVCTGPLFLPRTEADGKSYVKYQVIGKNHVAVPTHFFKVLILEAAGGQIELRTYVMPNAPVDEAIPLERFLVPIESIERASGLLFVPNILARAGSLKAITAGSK

[2] = biological target: T2, ENDOG T128D (human) (UniProt Q14249); assay: co-IP; wild-type and mutant ENDOG overexpressed in ENDOG knockout L02 cells
T2 sequence: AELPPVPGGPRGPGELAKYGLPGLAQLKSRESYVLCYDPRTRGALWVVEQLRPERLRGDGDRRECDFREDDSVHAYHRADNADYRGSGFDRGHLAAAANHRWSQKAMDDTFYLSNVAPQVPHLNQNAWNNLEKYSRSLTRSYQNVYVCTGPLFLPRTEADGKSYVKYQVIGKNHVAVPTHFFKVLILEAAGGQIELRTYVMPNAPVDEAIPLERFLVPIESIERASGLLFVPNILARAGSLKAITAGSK

[3] = biological target: T3, Myc-ENDOG (wild type) (human) (UniProt Q14249); assay: as above
T3 sequence: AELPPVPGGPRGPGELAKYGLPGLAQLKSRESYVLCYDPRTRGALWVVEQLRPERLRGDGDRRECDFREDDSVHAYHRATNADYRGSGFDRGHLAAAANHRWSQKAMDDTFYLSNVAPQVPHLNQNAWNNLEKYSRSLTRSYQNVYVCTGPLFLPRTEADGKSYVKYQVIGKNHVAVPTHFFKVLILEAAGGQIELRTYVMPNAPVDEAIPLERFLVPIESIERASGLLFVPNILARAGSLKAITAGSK

[4] = biological target: T4, ENDOG-DD (T128D/S288D) (human) (UniProt Q14249); assay: as above
T4 sequence: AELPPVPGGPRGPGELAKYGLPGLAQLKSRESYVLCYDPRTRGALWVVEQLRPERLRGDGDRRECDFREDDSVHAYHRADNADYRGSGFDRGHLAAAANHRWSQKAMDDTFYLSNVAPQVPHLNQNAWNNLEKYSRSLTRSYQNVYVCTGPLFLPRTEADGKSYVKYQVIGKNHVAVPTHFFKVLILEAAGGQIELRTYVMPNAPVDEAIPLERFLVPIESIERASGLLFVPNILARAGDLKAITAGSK

[5] = biological target: T5, ENDOG S288D (human) (UniProt Q14249); assay: as above
T5 sequence: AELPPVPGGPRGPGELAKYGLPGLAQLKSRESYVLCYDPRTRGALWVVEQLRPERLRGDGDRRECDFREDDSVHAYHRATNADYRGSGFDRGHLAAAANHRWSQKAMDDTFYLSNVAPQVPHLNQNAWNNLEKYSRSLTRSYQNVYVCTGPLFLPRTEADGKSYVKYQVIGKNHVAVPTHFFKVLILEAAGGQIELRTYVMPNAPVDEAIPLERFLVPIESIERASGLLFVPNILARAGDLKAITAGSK

[6] = biological target: T3, Myc-ENDOG (wild type) (human); assay: co-IP; Myc-ENDOG or Myc-ENDOG-AA transiently transfected with or without wild-type GSK-3β or kinase dead GSK-3β-K85A in ENDOG knockout L02 cells for 48 h
[7] = biological target: T6, 14-3-3γ, endogenous (human (endogenous in L02)) (UniProt P61981); assay: co-IP; endogenous co-IP in L02 WT cells, with or without starvation for 12 h
T6 sequence: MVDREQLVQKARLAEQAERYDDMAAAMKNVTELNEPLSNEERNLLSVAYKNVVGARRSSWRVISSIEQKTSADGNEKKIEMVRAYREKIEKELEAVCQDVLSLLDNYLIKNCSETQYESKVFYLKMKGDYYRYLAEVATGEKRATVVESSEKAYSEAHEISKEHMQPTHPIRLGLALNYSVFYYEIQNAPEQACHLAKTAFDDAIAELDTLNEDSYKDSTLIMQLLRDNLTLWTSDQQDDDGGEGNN

[8] = biological target: T7, Myc-14-3-3γ (UniProt P61981); assay: co-IP; ENDOG- or 14-3-3γ-overexpressing L02 cells; lysate in Western/IP buffer
T7 sequence: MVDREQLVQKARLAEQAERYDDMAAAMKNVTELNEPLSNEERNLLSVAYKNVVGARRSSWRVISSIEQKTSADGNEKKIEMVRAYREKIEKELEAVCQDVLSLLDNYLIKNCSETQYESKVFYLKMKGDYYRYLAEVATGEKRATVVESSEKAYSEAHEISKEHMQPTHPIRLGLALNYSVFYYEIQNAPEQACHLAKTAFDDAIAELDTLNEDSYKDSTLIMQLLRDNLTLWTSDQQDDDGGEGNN

[9] = biological target: T7, Myc-14-3-3γ; assay: co-IP; L02 ENDOG-KO cells co-overexpressing Myc-14-3-3γ with Flag-ENDOG or empty vector for 48 h

binding [1]: binds
binding [2]: binds
binding [3]: binds
binding [4]: binds
binding [5]: binds
binding [6]: binds
B1: 14-3-3γ, endogenous (protein, UniProt P61981 1-247)
chain: MVDREQLVQKARLAEQAERYDDMAAAMKNVTELNEPLSNEERNLLSVAYKNVVGARRSSWRVISSIEQKTSADGNEKKIEMVRAYREKIEKELEAVCQDVLSLLDNYLIKNCSETQYESKVFYLKMKGDYYRYLAEVATGEKRATVVESSEKAYSEAHEISKEHMQPTHPIRLGLALNYSVFYYEIQNAPEQACHLAKTAFDDAIAELDTLNEDSYKDSTLIMQLLRDNLTLWTSDQQDDDGGEGNN

binding [7]: binds
binding [8]: binds
B2: Endonuclease G (ENDOG), endogenous (protein, UniProt Q14249 49-297)
chain: AELPPVPGGPRGPGELAKYGLPGLAQLKSRESYVLCYDPRTRGALWVVEQLRPERLRGDGDRRECDFREDDSVHAYHRATNADYRGSGFDRGHLAAAANHRWSQKAMDDTFYLSNVAPQVPHLNQNAWNNLEKYSRSLTRSYQNVYVCTGPLFLPRTEADGKSYVKYQVIGKNHVAVPTHFFKVLILEAAGGQIELRTYVMPNAPVDEAIPLERFLVPIESIERASGLLFVPNILARAGSLKAITAGSK

binding [9]: binds
B3: Flag-ENDOG (Endonuclease G) (protein, UniProt Q14249 49-297)
chain: AELPPVPGGPRGPGELAKYGLPGLAQLKSRESYVLCYDPRTRGALWVVEQLRPERLRGDGDRRECDFREDDSVHAYHRATNADYRGSGFDRGHLAAAANHRWSQKAMDDTFYLSNVAPQVPHLNQNAWNNLEKYSRSLTRSYQNVYVCTGPLFLPRTEADGKSYVKYQVIGKNHVAVPTHFFKVLILEAAGGQIELRTYVMPNAPVDEAIPLERFLVPIESIERASGLLFVPNILARAGSLKAITAGSK
